Measured values published in the supplement of paper PMC10849652.
This is one part of the list.

By UniProt entry, the sequences of proteins in these tests, tags left out. Where a name states a change or a piece, a line headed by the entry shows the natural chain unless it says otherwise.
UniProt Q9NYA1, whole entry, looked up: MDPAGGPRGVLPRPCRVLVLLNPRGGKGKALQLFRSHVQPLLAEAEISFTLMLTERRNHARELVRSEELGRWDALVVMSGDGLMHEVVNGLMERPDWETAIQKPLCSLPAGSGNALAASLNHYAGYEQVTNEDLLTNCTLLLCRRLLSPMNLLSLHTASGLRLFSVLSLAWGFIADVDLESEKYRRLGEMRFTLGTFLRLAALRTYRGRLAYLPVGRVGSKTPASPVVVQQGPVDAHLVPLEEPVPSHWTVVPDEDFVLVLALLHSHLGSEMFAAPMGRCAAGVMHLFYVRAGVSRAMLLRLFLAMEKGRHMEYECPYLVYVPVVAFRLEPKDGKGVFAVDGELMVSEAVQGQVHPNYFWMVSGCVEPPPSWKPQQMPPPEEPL
UniProt Q5M775: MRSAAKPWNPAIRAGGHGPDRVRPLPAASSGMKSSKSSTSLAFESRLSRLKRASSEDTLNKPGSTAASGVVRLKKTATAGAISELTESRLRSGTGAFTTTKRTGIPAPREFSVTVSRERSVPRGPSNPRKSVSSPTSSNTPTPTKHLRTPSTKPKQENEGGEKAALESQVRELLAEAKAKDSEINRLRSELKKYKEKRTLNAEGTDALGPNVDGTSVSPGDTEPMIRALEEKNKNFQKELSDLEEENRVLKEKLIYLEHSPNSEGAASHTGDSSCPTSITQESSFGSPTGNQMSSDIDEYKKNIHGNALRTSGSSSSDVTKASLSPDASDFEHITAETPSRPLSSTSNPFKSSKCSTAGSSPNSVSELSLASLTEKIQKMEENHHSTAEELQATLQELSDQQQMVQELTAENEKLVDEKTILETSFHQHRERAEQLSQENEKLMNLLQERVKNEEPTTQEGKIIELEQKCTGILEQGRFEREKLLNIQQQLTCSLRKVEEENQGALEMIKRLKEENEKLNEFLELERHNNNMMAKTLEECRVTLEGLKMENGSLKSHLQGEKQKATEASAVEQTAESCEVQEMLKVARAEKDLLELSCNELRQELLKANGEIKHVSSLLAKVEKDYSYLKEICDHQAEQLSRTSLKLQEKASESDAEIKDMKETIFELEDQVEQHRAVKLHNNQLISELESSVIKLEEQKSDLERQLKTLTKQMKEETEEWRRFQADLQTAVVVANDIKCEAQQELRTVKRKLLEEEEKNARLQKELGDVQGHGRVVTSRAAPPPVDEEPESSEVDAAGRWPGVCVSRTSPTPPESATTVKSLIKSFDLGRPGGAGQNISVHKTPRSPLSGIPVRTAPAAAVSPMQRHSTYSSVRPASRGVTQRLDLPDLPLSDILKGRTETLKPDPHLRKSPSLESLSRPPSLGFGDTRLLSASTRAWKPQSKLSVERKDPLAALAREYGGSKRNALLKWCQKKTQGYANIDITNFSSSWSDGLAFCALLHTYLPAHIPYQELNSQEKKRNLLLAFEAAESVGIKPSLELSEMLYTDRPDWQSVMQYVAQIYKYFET
UniProt Q07955, whole entry, looked up: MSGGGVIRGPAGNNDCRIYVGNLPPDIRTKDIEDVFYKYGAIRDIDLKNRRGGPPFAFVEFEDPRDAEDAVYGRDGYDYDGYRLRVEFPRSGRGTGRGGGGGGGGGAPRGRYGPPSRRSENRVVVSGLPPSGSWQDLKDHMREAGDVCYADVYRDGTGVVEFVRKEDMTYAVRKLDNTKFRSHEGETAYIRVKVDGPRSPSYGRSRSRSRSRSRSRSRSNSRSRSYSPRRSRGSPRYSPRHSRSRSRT
UniProt Q9NSC7: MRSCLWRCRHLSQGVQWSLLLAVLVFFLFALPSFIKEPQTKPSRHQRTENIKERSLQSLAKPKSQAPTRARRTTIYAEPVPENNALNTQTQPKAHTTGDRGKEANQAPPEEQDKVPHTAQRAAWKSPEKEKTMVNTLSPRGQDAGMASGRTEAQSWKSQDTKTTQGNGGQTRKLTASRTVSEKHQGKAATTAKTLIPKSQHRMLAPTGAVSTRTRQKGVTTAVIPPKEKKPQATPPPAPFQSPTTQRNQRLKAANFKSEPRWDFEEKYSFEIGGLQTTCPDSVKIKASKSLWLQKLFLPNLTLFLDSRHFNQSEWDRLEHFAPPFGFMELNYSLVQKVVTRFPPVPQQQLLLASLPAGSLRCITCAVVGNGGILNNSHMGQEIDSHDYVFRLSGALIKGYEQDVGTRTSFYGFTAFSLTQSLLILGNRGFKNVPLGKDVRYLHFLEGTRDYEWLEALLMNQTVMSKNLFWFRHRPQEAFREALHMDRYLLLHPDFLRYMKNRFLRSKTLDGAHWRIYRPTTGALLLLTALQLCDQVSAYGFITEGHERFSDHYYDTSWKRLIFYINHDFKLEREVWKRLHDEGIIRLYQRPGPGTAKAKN
UniProt P78362, whole entry, looked up: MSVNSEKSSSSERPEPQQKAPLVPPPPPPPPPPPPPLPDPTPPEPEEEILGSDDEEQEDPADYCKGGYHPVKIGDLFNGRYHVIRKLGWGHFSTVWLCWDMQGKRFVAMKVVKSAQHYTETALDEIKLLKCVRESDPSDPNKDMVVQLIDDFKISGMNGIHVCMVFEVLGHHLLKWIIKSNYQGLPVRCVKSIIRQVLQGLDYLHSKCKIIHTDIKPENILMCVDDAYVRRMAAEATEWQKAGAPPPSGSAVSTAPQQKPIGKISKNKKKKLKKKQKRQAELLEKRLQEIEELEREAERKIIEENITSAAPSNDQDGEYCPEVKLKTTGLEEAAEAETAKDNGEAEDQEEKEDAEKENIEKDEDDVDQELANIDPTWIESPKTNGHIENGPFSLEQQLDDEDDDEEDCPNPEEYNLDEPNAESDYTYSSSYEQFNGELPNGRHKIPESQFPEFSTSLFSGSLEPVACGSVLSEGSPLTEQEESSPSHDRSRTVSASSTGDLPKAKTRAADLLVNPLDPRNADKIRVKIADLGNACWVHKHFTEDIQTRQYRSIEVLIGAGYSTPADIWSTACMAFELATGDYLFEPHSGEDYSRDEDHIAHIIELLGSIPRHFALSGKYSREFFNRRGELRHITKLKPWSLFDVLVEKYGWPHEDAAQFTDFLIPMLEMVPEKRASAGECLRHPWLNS
UniProt P40763, whole entry, looked up: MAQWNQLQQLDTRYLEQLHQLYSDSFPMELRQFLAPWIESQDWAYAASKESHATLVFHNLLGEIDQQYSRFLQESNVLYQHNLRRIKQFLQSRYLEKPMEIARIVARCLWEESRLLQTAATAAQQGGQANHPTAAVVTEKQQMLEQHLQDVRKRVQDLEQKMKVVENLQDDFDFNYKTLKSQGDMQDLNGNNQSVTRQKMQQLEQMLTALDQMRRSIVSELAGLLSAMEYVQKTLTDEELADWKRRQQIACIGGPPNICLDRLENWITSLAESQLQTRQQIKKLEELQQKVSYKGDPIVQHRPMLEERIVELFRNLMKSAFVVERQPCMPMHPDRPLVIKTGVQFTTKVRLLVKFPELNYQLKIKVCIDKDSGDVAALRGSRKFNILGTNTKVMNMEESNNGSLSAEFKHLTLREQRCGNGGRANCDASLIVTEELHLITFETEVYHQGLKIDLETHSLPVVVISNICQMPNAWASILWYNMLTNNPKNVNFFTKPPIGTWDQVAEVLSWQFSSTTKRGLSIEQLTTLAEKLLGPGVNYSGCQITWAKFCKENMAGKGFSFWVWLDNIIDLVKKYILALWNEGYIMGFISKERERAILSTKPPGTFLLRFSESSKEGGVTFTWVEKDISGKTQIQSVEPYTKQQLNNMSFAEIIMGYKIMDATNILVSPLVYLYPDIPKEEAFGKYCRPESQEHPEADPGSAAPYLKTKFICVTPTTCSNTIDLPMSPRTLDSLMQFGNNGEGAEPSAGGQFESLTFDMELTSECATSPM
UniProt Q16629: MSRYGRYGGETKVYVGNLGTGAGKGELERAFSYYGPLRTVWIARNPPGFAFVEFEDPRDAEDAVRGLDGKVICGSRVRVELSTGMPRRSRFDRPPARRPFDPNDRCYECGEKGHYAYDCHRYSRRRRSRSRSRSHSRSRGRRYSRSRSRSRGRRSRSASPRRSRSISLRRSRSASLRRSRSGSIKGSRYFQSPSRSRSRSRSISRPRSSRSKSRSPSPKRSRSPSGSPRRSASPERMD
UniProt Q9H254, whole entry, looked up: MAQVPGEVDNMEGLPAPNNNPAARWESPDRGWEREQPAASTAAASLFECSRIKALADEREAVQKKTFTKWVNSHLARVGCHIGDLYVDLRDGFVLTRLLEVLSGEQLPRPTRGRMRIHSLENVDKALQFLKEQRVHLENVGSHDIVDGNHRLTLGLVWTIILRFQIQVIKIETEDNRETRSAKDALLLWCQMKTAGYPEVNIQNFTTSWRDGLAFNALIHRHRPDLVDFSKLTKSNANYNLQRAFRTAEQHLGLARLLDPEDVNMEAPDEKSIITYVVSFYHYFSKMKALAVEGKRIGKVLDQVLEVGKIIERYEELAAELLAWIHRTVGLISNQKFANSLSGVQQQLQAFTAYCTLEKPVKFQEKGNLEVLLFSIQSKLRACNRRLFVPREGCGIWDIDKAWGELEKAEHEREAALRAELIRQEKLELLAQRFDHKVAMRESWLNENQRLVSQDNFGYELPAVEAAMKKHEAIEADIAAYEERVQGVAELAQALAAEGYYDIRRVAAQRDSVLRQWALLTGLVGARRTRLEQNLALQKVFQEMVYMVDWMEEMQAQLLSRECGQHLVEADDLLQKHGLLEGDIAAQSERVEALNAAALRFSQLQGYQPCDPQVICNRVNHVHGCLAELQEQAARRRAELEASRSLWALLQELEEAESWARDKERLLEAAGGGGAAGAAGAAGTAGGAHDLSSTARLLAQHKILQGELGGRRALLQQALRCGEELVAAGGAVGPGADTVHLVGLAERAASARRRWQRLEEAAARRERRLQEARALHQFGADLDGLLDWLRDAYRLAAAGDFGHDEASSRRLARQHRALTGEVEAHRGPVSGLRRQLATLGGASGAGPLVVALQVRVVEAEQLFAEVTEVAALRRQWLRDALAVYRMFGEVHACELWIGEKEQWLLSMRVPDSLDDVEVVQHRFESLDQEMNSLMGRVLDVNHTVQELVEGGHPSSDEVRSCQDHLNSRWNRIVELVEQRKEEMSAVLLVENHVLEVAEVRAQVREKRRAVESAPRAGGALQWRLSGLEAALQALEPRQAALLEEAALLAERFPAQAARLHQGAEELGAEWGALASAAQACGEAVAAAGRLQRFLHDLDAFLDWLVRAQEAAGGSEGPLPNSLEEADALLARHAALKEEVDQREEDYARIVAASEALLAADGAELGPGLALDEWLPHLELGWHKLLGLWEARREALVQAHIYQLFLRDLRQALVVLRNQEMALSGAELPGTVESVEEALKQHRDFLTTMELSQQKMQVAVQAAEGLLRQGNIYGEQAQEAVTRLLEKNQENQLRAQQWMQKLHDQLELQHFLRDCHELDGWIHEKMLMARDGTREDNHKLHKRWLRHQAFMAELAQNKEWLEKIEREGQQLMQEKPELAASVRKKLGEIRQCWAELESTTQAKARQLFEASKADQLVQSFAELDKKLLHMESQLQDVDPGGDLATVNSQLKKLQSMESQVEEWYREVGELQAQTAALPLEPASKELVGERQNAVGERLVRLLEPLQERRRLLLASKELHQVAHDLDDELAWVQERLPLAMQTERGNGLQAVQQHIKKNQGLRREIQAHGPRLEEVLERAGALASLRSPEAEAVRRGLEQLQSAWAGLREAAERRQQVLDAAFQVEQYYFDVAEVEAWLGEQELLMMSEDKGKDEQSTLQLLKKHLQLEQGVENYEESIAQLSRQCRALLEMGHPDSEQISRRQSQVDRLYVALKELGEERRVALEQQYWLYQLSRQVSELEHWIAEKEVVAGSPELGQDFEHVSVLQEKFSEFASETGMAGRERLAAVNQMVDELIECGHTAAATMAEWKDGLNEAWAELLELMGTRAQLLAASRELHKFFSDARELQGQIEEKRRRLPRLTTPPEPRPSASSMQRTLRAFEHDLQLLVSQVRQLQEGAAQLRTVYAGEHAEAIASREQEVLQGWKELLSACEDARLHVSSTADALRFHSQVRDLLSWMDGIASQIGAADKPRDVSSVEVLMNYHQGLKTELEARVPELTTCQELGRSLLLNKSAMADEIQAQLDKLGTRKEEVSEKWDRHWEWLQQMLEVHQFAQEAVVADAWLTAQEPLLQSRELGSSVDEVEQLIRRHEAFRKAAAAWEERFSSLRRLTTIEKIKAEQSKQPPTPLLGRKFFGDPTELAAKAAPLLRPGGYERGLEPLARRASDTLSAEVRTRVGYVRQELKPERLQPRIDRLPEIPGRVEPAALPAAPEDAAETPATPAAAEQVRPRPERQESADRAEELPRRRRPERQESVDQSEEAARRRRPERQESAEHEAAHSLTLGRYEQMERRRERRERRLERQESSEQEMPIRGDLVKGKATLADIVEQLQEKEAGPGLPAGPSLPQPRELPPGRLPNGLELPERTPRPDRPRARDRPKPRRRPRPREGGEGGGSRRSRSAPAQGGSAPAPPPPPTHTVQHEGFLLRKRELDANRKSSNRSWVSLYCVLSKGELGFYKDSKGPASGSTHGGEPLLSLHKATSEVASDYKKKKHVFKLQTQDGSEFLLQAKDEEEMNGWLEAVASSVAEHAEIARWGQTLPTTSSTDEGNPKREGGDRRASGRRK

The targets below were run with Cc1ccc(C(=O)N(CCCN)[C@@H](c2nc3cc(Cl)ccc3c(=O)n2Cc2ccccc2)C(C)C)cc1 [ispinesib] (assay: log2 fold change, soluble protein after heating vs DMSO (PISA); higher = thermal stabilisation; K562 cells, 10 uM, 30 min; active = over 0.2 and 3.5 SD of the protein, either way, in both replicates (recomputed)).
Method in brief: (§1)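 Soluble protein was defined as the supernatant after 21,000xg for 90 min. It came from K562 cells at 2×10^6 cells/mL given 10 μM compound for 30 min, heated in aliquots for 3 min across 48°C-58°C, pooled, and extracted in PBS with 0.5% NP-40 at 4°C, and was quantified by TMTpro 16plex LC-MS/MS with equalised channel sums. Thermal stability against control samples, from duplicates, is reported as log2 fold change.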
For SPAST (UniProt Q9UBP0), the log2 fold change was inactive: -0.001. SPIRE2 (UniProt Q8WWL2) was tested, and the log2 fold change was inactive: -0.066. For SPHK1 isoform 2 (UniProt Q9NYA1), the log2 fold change was inactive: -0.016. SPPL2A (UniProt Q8TCT8) was tested, and the log2 fold change was inactive: -0.027. In the case of SRA1 (UniProt Q9HD15), the log2 fold change is reported as inactive: 0.036. With STIM1 (UniProt Q13586) the log2 fold change was inactive: -0.233. With SPTBN1 (UniProt Q01082) the log2 fold change was inactive: 0.03. For SRSF3 (UniProt P84103), the log2 fold change was inactive: -0.095. In the case of SPECC1 (UniProt Q5M775), the log2 fold change is reported as inactive: -0.079. For STAG1 (UniProt Q8WVM7), the log2 fold change was inactive: 0.019. For SPPL2B (UniProt Q8TCT7), the log2 fold change was inactive: -0.026. For SRP54 (UniProt P61011), the log2 fold change was inactive: -0.066. In the case of ST3GAL2 (UniProt Q16842), the log2 fold change is reported as inactive: -0.096. In the case of SRSF1 (UniProt Q07955), the log2 fold change is reported as inactive: -0.139. With STAT1 (UniProt P42224) the log2 fold change was inactive: -0.13. For STAT5B (UniProt P51692), the log2 fold change was inactive: -0.082. With ST6GALNAC1 (UniProt Q9NSC7) the log2 fold change was inactive: -0.027. In the case of STEAP3 isoform 2 (UniProt Q658P3), the log2 fold change is reported as inactive: -0.159. With SPRYD4 (UniProt Q8WW59) the log2 fold change was inactive: 0.093. For SRGAP2 (UniProt O75044), the log2 fold change was inactive: 0.007. For SRPK2 isoform 2 (UniProt P78362), the log2 fold change was inactive: -0.246. For SPART (UniProt Q8N0X7), the log2 fold change was inactive: -0.001. In the case of STK24 (UniProt Q9Y6E0), the log2 fold change is reported as inactive: -0.022. STAT3 (UniProt P40763) was tested, and the log2 fold change was inactive: -0.03. For SPECC1L (UniProt Q69YQ0), the log2 fold change was inactive: 0.033. SPTLC1 (UniProt O15269) was tested, and the log2 fold change was inactive: -0.011. SRFBP1 (UniProt Q8NEF9) was tested, and the log2 fold change was inactive: -0.055. With STAT5A (UniProt P42229) the log2 fold change was inactive: 0.275. For SRSF4 (UniProt Q08170), the log2 fold change was inactive: -0.021. For SRP72 (UniProt O76094), the log2 fold change was inactive: -0.185. For SRSF7 (UniProt Q16629), the log2 fold change was inactive: -0.089. In the case of SSR4 (UniProt P51571), the log2 fold change is reported as inactive: -0.045. SPTBN4 (UniProt Q9H254) was tested, and the log2 fold change was inactive: 0.06. In the case of SPATA5L1 (UniProt Q9BVQ7), the log2 fold change is reported as inactive: -0.004. In the case of SPG11 (UniProt Q96JI7), the log2 fold change is reported as inactive: -0.328. STAT6 (UniProt P42226) was tested, and the log2 fold change was inactive: -0.033. STARD9 (UniProt Q9P2P6) was tested, and the log2 fold change was inactive: -0.146. For SREK1 isoform 2 (UniProt Q8WXA9), the log2 fold change was inactive: 0.059.

What follows are targets tested with Cc1ccc(NC(=O)c2ccc(CN3CC[C@H](N(C)C)C3)c(C(F)(F)F)c2)cc1Nc1nccc(-c2cncnc2)n1 [bafetinib] in the same assay as above.
Method in brief: as §1
SPAST (UniProt Q9UBP0) was tested, and the log2 fold change was inactive: -0.015. For SPIRE2 (UniProt Q8WWL2), the log2 fold change was inactive: 0.001. For SPHK1 isoform 2 (UniProt Q9NYA1), the log2 fold change was inactive: 0.055. For SPPL2A (UniProt Q8TCT8), the log2 fold change was inactive: 0.023. For SRA1 (UniProt Q9HD15), the log2 fold change was inactive: -0.055. STIM1 (UniProt Q13586) was tested, and the log2 fold change was inactive: -0.143. SPTBN1 (UniProt Q01082) was tested, and the log2 fold change was inactive: 0.064. With SRSF3 (UniProt P84103) the log2 fold change was inactive: 0.126. For SPECC1 (UniProt Q5M775), the log2 fold change was inactive: -0.102. For STAG1 (UniProt Q8WVM7), the log2 fold change was inactive: -0.015. SPPL2B (UniProt Q8TCT7) was tested, and the log2 fold change was inactive: -0.087. In the case of SRP54 (UniProt P61011), the log2 fold change is reported as inactive: -0.021. In the case of ST3GAL2 (UniProt Q16842), the log2 fold change is reported as inactive: 0.092. SRSF1 (UniProt Q07955) was tested, and the log2 fold change was inactive: 0.135. With STAT1 (UniProt P42224) the log2 fold change was inactive: 0.094. With STAT5B (UniProt P51692) the log2 fold change was inactive: -0.056. ST6GALNAC1 (UniProt Q9NSC7) was tested, and the log2 fold change was inactive: -0.022. For STEAP3 isoform 2 (UniProt Q658P3), the log2 fold change was inactive: -0.044. In the case of SPRYD4 (UniProt Q8WW59), the log2 fold change is reported as inactive: -0.011. SRGAP2 (UniProt O75044) was tested, and the log2 fold change was inactive: -0.028. SRPK2 isoform 2 (UniProt P78362) was tested, and the log2 fold change was inactive: 0.236. In the case of SPART (UniProt Q8N0X7), the log2 fold change is reported as inactive: -0.041. STK24 (UniProt Q9Y6E0) was tested, and the log2 fold change was inactive: -0.063. With STAT3 (UniProt P40763) the log2 fold change was inactive: -0.015. In the case of SPECC1L (UniProt Q69YQ0), the log2 fold change is reported as inactive: 0.011. SSU72 (UniProt Q9NP77) was tested, and the log2 fold change was inactive: 0.293. For SPTLC1 (UniProt O15269), the log2 fold change was inactive: 0.007. In the case of SRFBP1 (UniProt Q8NEF9), the log2 fold change is reported as inactive: 0.075. In the case of STAU2 (UniProt Q9NUL3), the log2 fold change is reported as inactive: 0.147. For STAT5A (UniProt P42229), the log2 fold change was inactive: 0.034. SRSF4 (UniProt Q08170) was tested, and the log2 fold change was inactive: 0.215. With SRP72 (UniProt O76094) the log2 fold change was inactive: 0.05. For SRSF7 (UniProt Q16629), the log2 fold change was inactive: 0.073. With SSR4 (UniProt P51571) the log2 fold change was inactive: -0.011. In the case of SPTBN4 (UniProt Q9H254), the log2 fold change is reported as inactive: -0.036. SPATA5L1 (UniProt Q9BVQ7) was tested, and the log2 fold change was inactive: -0.044. SPG11 (UniProt Q96JI7) was tested, and the log2 fold change was inactive: -0.493. In the case of STAT6 (UniProt P42226), the log2 fold change is reported as inactive: 0.027. STARD9 (UniProt Q9P2P6) was tested, and the log2 fold change was inactive: 0.012. SREK1 isoform 2 (UniProt Q8WXA9) was tested, and the log2 fold change was inactive: 0.07.
